The source of these data is patent US20250376511A1.

The target of the assay is His-tagged recombinant human TfR (produced in-house) (human) (UniProt P02786). The assay can be described thus: worded summary among the three IgG1-NNAS bispecifics.

Results are given in words; binding and its absence hold for the method and conditions named. Some entries that bind do so weakly or less than the wild type.

B1: aC1s_088 × 531v23 IgG1-NNAS/dK (bispecific antibody, V domains shown)
VH 1: QVQLVQSGAEVKKPGASVKLSCTASGFNIKDDYIHWVKEAPGQGLEWIGRIDPADGHTKYAPKFQVKVTITADTSTSTAYLELSSLRSEDTAVYYCARYGYGREVFDYWGQGTTVTVSS
VL 1: DIVLTQSPDSLAVSLGERATISCKASQSVDYDGDSYMNWYQKKPGQPPKILIYDASNLESGIPARFSGSGSGTDFTLTISSLEPEDFAIYYCQQSNEDPWTFGGGTKVEIK
VH 2: QVQLVQSGAEVKKPGASVKVSCKASGYTFTRYYLNWVRKAPGQGLEWIGMIDPSVSETHYAQKFQGRATLTVDKSTSTAYMELSSLRSEDTAVYYCSQIRLPYYYAMDSWGQGTTVTVSS
VL 2: DIQMTQSPSSLSASVGDRVTITCRASQDISSFLNWYQEKPGKAPKLLIYYTSRLHSGVPSRFSGSGSGTDYTLTISSLQPEDFATYYCQQGNTLPRTFGGGTKVEIK
Turning to B1, the binding result was “binds”.
